PubChem BioAssay AID504808, Drosophila RNAi Screening Center – 2011

- Aim: 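Fly genes required to hold E2F transcription in check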 (primary screen)
- System: Drosophila S2 cells
- Knock-down reagent: long dsRNA against Drosophila genes
- Measurement: 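Firefly luciferase driven by E2F sites, normalised to Renilla luciferase on the same minimal promoter, measured by plate reader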
- Direction: E2F firefly: higher = more E2F reporter activity; Renilla normaliser: higher = more normaliser reporter signal
- Rule for the call: 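Called active if the normalised E2F reporter went up by over 50%; the cutoff is arbitrary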
The deposit covers about 21,000 reagents; shown is a random part of those with a known target gene and a result. In the full data, 18 (0.084%) got an active call. 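Raw counts without plate normalisation, one of two replicates; the ratio scores behind the calls were not deposited.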 Entries without a mark were called inactive. Reagents against one gene are numbered here. Names joined by + are all predicted targets of the reagent. Not given: the amount of reagent, the time to read-out.

gene	reagent	E2F firefly, rep 1	Renilla normaliser, rep 1
Pburs (GeneID 34845)	1	99754	4180
CG16926 (GeneID 50205)	1	70911	3194
CG14647 (GeneID 40558)	1	75526	3513
CG9928 (GeneID 34704)	1	1.20e5	135
Prp3 (GeneID 40172)	1	95450	7115
CG17575 (GeneID 36414)	1	1.01e5	4899
CG18088 (GeneID 34219)	1	1.54e5	5093
Shab (GeneID 38352)	1	1.34e5	4230
Shab (GeneID 38352)	2	1.06e5	4720
Shab (GeneID 38352)	3	74856	2785
CG11920 (GeneID 43009)	1	72120	3010
CG17304 (retired record) (GeneID 41796)	1	71429	4778
Or33c (GeneID 34603)	1	97890	4877
Dtwd2 + Obp84a	1	1.40e5	7290
CG9682 (GeneID 43602)	1	1779	852
CG13678 (GeneID 38922)	1	57729	3458
Tango4 (GeneID 32168)	1	4987	832
CG6171 (GeneID 41872)	1	87535	3687
Mrgn1 (GeneID 32330)	1	7922	732
Hgsnat (GeneID 31423)	1	6768	740
CG17129 (GeneID 38080)	1	84309	3128
Lrrk (GeneID 42447)	1	1.49e5	7744
Dsor1 (GeneID 31872)	1	7362	840
CG8001 (GeneID 38224)	1	67412	2951
Gpdh1 (GeneID 33824)	1	82977	3937
Rrp6 (GeneID 41798)	1	39934	3058
PIG-B (GeneID 38446)	1	86330	3869
CG11698 (GeneID 40986)	1	50828	3492
CG15879 (GeneID 38274)	1	1.04e5	4726
CG12912 (GeneID 36075)	1	81384	3903
WASp (GeneID 43402)	1	1.06e5	5838
CG18493 (GeneID 42319)	1	1.31e5	6020
CG15894 (GeneID 31574)	1	1.10e5	5707
CG15894 (GeneID 31574)	2	44143	3239
Irk3 (GeneID 35131)	1	87923	3693
grsm (GeneID 41587)	1	96543	5854
grsm (GeneID 41587)	2	95835	6003
Mad (GeneID 33529)	1	1.55e5	4827
SmydA-9 (GeneID 31859)	1	1.15e5	4950
CG12229 (GeneID 39945)	1	1.60e5	7131
tld (GeneID 42945)	1	1.17e5	6559
Pez (GeneID 33882)	1	1.55e5	5669
CG3347 (GeneID 33538)	1	1.54e5	4856
bip1 (GeneID 38891)	1	69123	4120
Gapdh1 (GeneID 35728)	1	1.48e5	4829
CG34357 (GeneID 5740349)	1	1.44e5	7443
CG34357 (GeneID 5740349)	2	1.15e5	5623
CG34357 (GeneID 5740349)	3	1.41e5	6984
CG6154 (GeneID 43184)	1	90081	4388
CG8757 (GeneID 39528)	1	1.36e5	7838
CG8097 (GeneID 32495)	1	1.53e5	5679
CG4596 (GeneID 41312)	1	1.38e5	6077
CG40498 (GeneID 3354890)	1	1.77e5	6653
CG5160 (GeneID 34015)	1	1.64e5	5078
Apt1 (GeneID 59176)	1	1.16e5	6124
CG34125 (GeneID 4379886)	1	1.26e5	6333
Acp26Aa (GeneID 33817)	1	1.48e5	5178
CG9154 (GeneID 33858)	1	84047	4652
CG7140 (GeneID 40445)	1	1.38e5	6642
CG42748 (GeneID 35442)	1	98441	4340
CG42748 (GeneID 35442)	2	84951	3574
CG42748 (GeneID 35442)	3	1.17e5	4097
GNBP-like3 (GeneID 37313)	1	1.43e5	4425
CG2076 (GeneID 32041)	1	1.18e5	5562
CG11060 (GeneID 35641)	1	86353	3697
CG7953 (GeneID 34801)	1	80172	3458

Targets listed so far whose target name begins with T or t (2):
gene	reagent	E2F firefly, rep 1	Renilla normaliser, rep 1
Tango4 (GeneID 32168)	1	4987	832
tld (GeneID 42945)	1	1.17e5	6559

Further reagents follow:
gene	reagent	E2F firefly, rep 1	Renilla normaliser, rep 1
cyst (GeneID 35237)	1	75212	3309
scramb1 (GeneID 326186)	1	1.23e5	6759
scramb1 (GeneID 326186)	2	1.19e5	6136
scramb1 (GeneID 326186)	3	1.20e5	6342
ValRS-m (GeneID 39023)	1	95234	3899
PH4alphaNE2 (GeneID 43628)	1	1.37e5	7810
Drp1 (GeneID 33445)	1	87685	3929
CG18735 (GeneID 59137)	1	90992	4182
CG10175 (GeneID 42773)	1	82356	2473
CG10175 (GeneID 42773)	2	1.07e5	6003
CG33271 (GeneID 2768972)	1	94679	5948
Cht7 + tRNA:Cys-GCA-1-4 + tRNA:Lys-CTT-1-13	1	1.17e5	3795
CG9649 (GeneID 41727)	1	73877	2991
Tsp33B (GeneID 34590)	1	1.51e5	4992
CG11581 (GeneID 32362)	1	1.49e5	6028
Fatp3 (GeneID 37887)	1	98960	4070
CG32563 (GeneID 32706)	1	1.62e5	6959
CG32196 (GeneID 317908)	1	1.53e5	4324
14-3-3epsilon (GeneID 42186)	1	1.52e5	6612
Alp12 (GeneID 35218)	1	90241	4123
Polr3B (GeneID 36289)	1	2718	212
Atg16 (GeneID 326115)	1	2107	832
Atg16 (GeneID 326115)	2	1.25e5	6538
Atg16 (GeneID 326115)	3	1.32e5	6840
CG15712 (GeneID 36843)	1	1.38e5	4888
CG10035 (GeneID 41511)	1	1.55e5	6508
CG14621 (GeneID 33128)	1	1.31e5	6955
CG3662 (GeneID 33260)	1	97518	3453
Or85a (GeneID 40991)	1	1.42e5	6553
dx (GeneID 31589)	1	97571	4721
CG13287 (GeneID 38660)	1	55883	3535
Cks85A (GeneID 41034)	1	1.28e5	6564
vrs (GeneID 41537)	1	1.32e5	6354
EcR (GeneID 35540)	1	1.11e5	5117
EcR (GeneID 35540)	2	71338	3260
CG15141 (GeneID 35044)	1	79663	3306
CG15141 (GeneID 35044)	2	99532	4146
CG1773 (GeneID 35999)	1	2709	224
Tis11 (GeneID 32222)	1	5631	624
CG11398 (GeneID 31070)	1	1.13e5	5864
CG14607 (GeneID 40869)	1	1.01e5	6062
